PubChem BioAssay AID1347423 (Functional Genomics Laboratory (NCATS/FGL), 2020)
In all, about 52,000 sequences went through this assay and about 210 (0.4%) were called active.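 The calls were made as follows: active = gene whose silencing raises cell survival under the drug, median off-target-corrected z-score across its silencing RNAs 2 or more; inactive = the rest.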 This is one part of the list.

Experiment: Resistance to Poly (ADP-Ribose) Polymerase inhibitor: Gene Identification via Genome-wide siRNA Screen
Conditions: mouse BRCA2 R2336H ES cells, olaparib, CellTiter-Glo viability; hits give high values
Method in brief: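 Mouse BRCA2 R2336H ES cells were reverse-transfected with siRNA (20 nM final), treated at 48 h with 500 nM olaparib, and read by CellTiter-Glo after 72 h. Scores: MAD-based z per siRNA, median per gene, seed off-target correction.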

Sequence | z-score
GGUGGAGUUCGUGUUGAGCTT against Gabt4 | inactive: 1.98
CGAUUCCAGAAGAUCAUGUTT against Ott | inactive: -1.31
GGCUGGUCUCCAAACCCAATT against F13b | inactive: 1.41
GGAGCACAAAAAUCAGACATT against Hmga1l4 | inactive: 0.75
GCCUACGAGGACAGUACAATT against Mst1r | inactive: 0.412
GGAGACAAUCUGGAUAAGCTT against 2810032G03Rik | inactive: -0.00302
GGAGGUCUUCAGUUCUUACTT against Fntb | inactive: -1.63
GGACACUGUGGAUAAUGACTT against 1810009J06Rik | inactive: -0.56
GGAAAUGGUCCCUCUGUGUTT against Bzrap1 | inactive: -1.22
CGCUACGACUAGAGUUUGCTT against Rbpms | inactive: 1.28
GCUAGACCCAUAAUAAAACTT against Synpo2l | inactive: 0.84
CCGCAUUCCCAUGAAGACATT against 4933430F16Rik | inactive: -0.262
GGUCAAUUUGGUUUGUGAATT against Cenpa | inactive: -1.16
CCCGACCUCAACAUUUGUATT against Bmp2k | inactive: 0.0815
GGGCCUCAAACAUCUGACUTT against 2600016J21Rik | inactive: -0.357
GCUCCAAAGAGAUUGAGACTT against 4933417K04Rik | inactive: -0.27
GCAAUAGUGAGCACGCCAGTT against Col18a1 | inactive: 1.19
GGUAUGGUUUCUAUAACAATT against 9330196J05Rik | inactive: 1.43
GGCUGUAUUUUGUAUUGUCTT against 2810002N01Rik | inactive: 0.855
GCUGCUUGCUGACCUCCUATT against Olfr522 | inactive: -1.98
CCGCAUGGAGCAUCUAAUATT against Tuft1 | inactive: 0.109
CGAGGUGGCUACAGAUCAATT against DXBwg1396e | inactive: 0.207

Sequence | z-score
GCACACCUAGAAACAACCGTT against Mfap3l | inactive: -0.028
GCUCUAGGAAUUCCUCACUTT against Bambi | inactive: 0.378
GGAAAAGAGAGAAAAUGUUTT against D130059P03Rik | inactive: -0.673
CCUCGUAUUAGAUGAUGCATT against Snrpe | inactive: -3.24
GCCAAGUCCCGACAAGUAGTT against Rpl26 | inactive: -3.08
GGGUGUACAUUUUUCUUGUTT against 1700024B05Rik | inactive: 1.9
GCCCGCAUUGCCUUUUGAATT against Rai2 | inactive: -0.286
GCUUCGAGUCAUAGGUUUATT against Gm316 | inactive: -0.291
CCGAAUUUCUGCAUUUAACTT against Cnbp1 | inactive: 1.09
GGCUUAGUCAACUUGAAAATT against Atp5s | inactive: -0.608
GGAGGAACAGAAGAAACUCTT against 1110017O22Rik | inactive: 0.314
GGAAAACAGGAAAAUCCAUTT against Olfr1076 | inactive: 1.75
CCAUGUAUCAAUGAUGAUGTT against C6 | inactive: -0.139
GGAUAACCUUCUCUGGAGATT against Fbxw7 | inactive: 0.826
GGGUCAAAGCCCAUGGCAATT against Hbb-y | inactive: 1.29
CCAGAAACGAUGCAUUCAUTT against Olfr124 | inactive: 0.448
GCCAGAUGGAUCGAAAGAUTT against Numa1 | inactive: -0.514
GCGUGAGCUUAAGAAGCAATT against Leng8 | inactive: -1.75
CGAGGUGGUCAUAAAGAACTT against Gas8 | inactive: -0.000513
UGUACUGAUACCUAUUUCATT against Olfr1251 | inactive: -0.774
GGUACAGUGAUUGUACAACTT against Atrx | inactive: 0.751
GCAUGUCGUCUGAGAAAGUTT against Pgr | inactive: -0.535

A few values from the results shown:
For z-score, GGAAAACAGGAAAAUCCAUTT against Olfr1076 shows inactive: 1.75
For z-score, GCCAAGUCCCGACAAGUAGTT against Rpl26 shows inactive: -3.08
For z-score, CGAGGUGGUCAUAAAGAACTT against Gas8 shows inactive: -0.000513

Following part:

Sequence | z-score
GGAUGACUGUAUCUGUACUTT against Ttc3 | inactive: 0.145
GGCUGUAUCUCAUCUUUGATT against Cdc2a | inactive: -1.8
GGAUACAGAGCAGGAGAAATT against 4930539I12Rik | inactive: -0.358
GGUGUUGAUGUAAAAACACTT against Egf | inactive: -0.0405
GCUUCACUAAUGUUGGUCUTT against Olfr958 | inactive: 0.381
GGUAAAUCCUCUACCGCAUTT against D7Ertd458e | inactive: 0.912
CCUGUCGCCACGUGGAAUATT against D530030D03Rik | inactive: -1.75
GCUACAAGUGCCACAGAUATT against Doxl2 | inactive: 0.263
GGUGAUUGUCCGGUUCGGUTT against BC003277 | inactive: 0.17
CCUGGAUGGUCAUAUUAAGTT against Lats2 | inactive: -0.119
GGCUUCGUGGCAAAGUCAUTT against Sucla2 | inactive: 0.365
GGUGUUAAUUGUAGCAGGGTT against Olfr920 | inactive: 0.932
GCAUUCGGAAGAGUCAUGUTT against Hnf4g | inactive: -1.05
CGGAUAAGCGGAUCUUUGUTT against Cad | inactive: 0.133
GGAACAAGUGGUAUUCCCGTT against 2610319K07Rik | inactive: -0.889
AUACGAUUUUUGUACUGCUTT against Defcr4 | inactive: 0.493
AAAAUCGUCAGAUCAAUCATT against Olfr698 | inactive: -0.909
GCAUUUAAUGGCAUUACUGTT against Gm414 | inactive: 0.219
GGCCAUUAUGGACAUGAAUTT against Zcchc7 | inactive: 0.883
GGUUUGGUAAGUCAUCUUATT against Dapp1 | inactive: 1.21
GGACAGAGUUUUCAUUUUGTT against Rptn | inactive: 0.179
GGAUGCACAUAUUCAAGCCTT against Gm1395 | inactive: -0.134

Random excerpt: 2 entries already listed, in no set order.
Sequence | z-score
GGAUGCACAUAUUCAAGCCTT against Gm1395 | inactive: -0.134
GGCCAUUAUGGACAUGAAUTT against Zcchc7 | inactive: 0.883
